Laboratory results from PubChem BioAssay AID624161 (National Center for Advancing Translational Sciences (NCATS), 2012).
The shares of active, inactive and inconclusive entries below differ from those in the screen. Potencies beside an inconclusive call are fits to weak or partial responses and may not hold up. Calls of active or inactive are those of the source. Calls come from the whole dose curve; as a rule, active = well fitted inhibition curve with a large enough effect; inconclusive = small, poorly fitted or top-dose-only effect; inactive = no such curve, though single readings can be large or run the other way.

Sequences of proteins named here, by UniProt entry; tags and fusion partners are left off.
UniProt Q03164, whole entry, looked up: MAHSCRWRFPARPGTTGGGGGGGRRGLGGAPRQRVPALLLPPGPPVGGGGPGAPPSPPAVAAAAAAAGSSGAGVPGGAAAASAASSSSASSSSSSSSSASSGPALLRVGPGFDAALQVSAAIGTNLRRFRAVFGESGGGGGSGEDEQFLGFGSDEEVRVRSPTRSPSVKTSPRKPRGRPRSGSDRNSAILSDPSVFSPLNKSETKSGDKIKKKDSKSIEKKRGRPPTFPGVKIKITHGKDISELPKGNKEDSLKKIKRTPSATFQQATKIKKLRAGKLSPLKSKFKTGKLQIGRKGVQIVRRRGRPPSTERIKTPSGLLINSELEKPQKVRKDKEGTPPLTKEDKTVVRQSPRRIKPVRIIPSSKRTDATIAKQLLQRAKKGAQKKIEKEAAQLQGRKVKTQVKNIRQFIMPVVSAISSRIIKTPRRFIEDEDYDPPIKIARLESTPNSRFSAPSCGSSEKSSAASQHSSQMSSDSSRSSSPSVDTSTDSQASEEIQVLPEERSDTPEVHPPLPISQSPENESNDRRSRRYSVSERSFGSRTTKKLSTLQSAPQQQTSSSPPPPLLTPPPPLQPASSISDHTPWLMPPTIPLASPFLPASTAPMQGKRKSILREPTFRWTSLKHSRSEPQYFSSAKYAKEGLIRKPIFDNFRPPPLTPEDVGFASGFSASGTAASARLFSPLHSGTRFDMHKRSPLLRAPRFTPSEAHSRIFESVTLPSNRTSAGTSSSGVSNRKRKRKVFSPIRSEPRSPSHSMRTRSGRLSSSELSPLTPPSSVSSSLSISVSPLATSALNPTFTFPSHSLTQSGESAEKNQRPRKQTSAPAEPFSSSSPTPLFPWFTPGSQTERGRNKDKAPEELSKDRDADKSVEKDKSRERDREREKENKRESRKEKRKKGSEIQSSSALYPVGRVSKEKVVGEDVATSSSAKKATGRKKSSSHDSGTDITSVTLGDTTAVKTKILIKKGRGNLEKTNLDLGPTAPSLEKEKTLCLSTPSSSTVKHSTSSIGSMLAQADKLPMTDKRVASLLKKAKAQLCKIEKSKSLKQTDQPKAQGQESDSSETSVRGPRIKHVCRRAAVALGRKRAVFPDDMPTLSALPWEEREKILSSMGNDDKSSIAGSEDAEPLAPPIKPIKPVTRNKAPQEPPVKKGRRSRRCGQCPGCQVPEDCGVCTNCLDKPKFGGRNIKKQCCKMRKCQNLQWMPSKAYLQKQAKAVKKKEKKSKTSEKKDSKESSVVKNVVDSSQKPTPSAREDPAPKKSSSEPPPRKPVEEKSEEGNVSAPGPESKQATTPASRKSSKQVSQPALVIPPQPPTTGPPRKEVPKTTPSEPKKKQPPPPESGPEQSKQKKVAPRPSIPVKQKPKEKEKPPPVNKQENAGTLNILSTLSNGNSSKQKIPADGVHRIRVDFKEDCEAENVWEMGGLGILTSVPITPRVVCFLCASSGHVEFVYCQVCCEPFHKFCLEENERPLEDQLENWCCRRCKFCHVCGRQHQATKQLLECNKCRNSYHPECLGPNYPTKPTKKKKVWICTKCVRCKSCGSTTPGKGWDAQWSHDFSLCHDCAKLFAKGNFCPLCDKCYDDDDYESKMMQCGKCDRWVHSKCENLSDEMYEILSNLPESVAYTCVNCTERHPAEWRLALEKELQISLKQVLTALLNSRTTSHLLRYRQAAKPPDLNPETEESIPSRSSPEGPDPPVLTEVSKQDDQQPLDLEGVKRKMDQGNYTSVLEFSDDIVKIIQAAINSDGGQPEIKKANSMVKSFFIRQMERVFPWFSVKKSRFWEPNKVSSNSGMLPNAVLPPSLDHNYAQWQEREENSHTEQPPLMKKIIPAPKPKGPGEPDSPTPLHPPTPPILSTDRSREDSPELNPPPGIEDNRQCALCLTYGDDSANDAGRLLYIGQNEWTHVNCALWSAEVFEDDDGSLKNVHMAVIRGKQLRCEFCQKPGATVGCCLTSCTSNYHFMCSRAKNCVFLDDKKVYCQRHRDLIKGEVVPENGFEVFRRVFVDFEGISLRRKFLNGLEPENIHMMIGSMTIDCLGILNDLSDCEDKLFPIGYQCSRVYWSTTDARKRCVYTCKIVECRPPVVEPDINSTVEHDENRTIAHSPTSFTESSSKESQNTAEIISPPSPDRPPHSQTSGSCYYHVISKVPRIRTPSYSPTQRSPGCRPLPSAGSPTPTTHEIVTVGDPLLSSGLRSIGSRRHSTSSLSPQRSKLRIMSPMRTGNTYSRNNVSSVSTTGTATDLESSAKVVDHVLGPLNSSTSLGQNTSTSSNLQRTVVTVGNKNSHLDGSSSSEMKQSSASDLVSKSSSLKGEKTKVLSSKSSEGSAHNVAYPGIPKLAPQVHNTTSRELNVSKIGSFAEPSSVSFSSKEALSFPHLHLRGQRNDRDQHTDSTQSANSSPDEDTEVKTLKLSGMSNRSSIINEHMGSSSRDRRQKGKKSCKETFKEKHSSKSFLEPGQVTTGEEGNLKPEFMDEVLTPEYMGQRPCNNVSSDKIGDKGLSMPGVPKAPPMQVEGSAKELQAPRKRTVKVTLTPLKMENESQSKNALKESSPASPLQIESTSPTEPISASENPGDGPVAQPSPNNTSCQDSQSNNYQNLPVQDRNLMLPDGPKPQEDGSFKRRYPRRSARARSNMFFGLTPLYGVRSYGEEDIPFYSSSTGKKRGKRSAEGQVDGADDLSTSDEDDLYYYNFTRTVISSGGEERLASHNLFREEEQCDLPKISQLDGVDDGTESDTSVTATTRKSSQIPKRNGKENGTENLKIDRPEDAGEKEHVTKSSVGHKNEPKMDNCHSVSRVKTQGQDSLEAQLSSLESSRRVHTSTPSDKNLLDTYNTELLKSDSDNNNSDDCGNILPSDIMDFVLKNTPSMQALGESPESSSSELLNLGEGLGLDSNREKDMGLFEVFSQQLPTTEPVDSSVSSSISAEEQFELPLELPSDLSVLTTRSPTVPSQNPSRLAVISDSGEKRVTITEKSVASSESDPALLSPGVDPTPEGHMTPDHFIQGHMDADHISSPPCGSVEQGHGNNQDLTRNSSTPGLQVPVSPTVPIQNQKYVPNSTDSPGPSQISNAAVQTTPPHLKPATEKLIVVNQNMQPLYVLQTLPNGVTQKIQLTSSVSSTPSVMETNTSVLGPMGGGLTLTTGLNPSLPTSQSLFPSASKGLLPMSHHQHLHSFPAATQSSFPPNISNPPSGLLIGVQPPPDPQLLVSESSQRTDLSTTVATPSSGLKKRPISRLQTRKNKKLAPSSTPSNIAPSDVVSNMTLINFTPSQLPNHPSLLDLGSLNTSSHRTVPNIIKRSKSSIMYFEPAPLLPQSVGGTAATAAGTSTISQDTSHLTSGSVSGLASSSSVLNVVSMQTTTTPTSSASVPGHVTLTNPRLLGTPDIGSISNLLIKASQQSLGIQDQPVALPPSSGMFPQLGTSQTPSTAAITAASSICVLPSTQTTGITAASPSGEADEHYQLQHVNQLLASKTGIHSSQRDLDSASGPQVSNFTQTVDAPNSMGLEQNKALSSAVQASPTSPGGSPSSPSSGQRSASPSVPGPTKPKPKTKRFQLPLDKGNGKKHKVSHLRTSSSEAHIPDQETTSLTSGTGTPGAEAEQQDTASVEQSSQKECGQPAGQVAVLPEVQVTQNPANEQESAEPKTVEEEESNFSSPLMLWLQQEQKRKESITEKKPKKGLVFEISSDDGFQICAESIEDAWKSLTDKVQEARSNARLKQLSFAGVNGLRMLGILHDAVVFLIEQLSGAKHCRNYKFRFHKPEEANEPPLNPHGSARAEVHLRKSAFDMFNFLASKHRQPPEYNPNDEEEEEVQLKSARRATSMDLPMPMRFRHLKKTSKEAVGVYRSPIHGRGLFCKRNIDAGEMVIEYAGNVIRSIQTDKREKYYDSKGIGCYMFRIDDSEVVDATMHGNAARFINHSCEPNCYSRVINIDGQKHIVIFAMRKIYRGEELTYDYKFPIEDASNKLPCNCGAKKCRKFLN

Each compound was assayed against Histone-lysine N-methyltransferase 2A (Homo sapiens) (UniProt Q03164) (assay: qHTS Fluorescence Polarization (FP) Assay for Inhibitors of MLL CXXC domain - DNA interaction: Texas Red FP). Conditions: MLL CXXC-DNA binding; series mostly up to 345 µM.
How it was run: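 MLL-CXXC domain (7 uM solution) preincubated 5 min with compound, then Texas Red-labelled HOX-A9 DNA (50 nM solution) added for 30 min at ambient. Buffer 50 mM Tris-HCl pH 7.5, 50 mM NaCl, 1 mM DTT, 0.05% BSA; fluorescence polarization read.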
Note: nearly all actives have a fitted effect of over 75% in size.
Potency is the fitted concentration of half-maximal effect.

Structure (SMILES)	Potency
Cc1ccc(C2OC34CCCCCC3C(C#N)(C(=N)O4)C2(C#N)C#N)cc1 (stereo unspecified)	inconclusive: 142 µM [inhibitor, partial curve]
CCOC(=O)COc1ccc(/C=C2/C(=O)NN(c3ccc(F)cc3)C2=O)cc1OC	inconclusive: 126 µM [inhibitor, partial curve]
NS(=O)(=O)c1ccc(NC(=O)c2c(Cl)cccc2Cl)cc1	inconclusive: 113 µM [inhibitor, partial curve]
COc1cccc(/C=C2/C(=O)NN(c3ccc(Br)cc3)C2=O)c1O	inconclusive: 113 µM [inhibitor, partial curve]
Nc1cc2c3c(cccc3c1)C(=O)N(CCN1CCCC1)C2=O	inconclusive: 71.1 µM [inhibitor, partial curve]
CC(C)OC(=O)CC(=O)c1sc2nc3c(cc2c1N)CN(C)CC3	inconclusive: 22.5 µM [inhibitor, full curve]
O=C1NN(c2ccccc2)C(=O)/C1=C\c1ccc2c(c1)OCO2	inconclusive: 142 µM [inhibitor, partial curve]
CCn1c(CSc2ncn[nH]2)nc2cc(C(=O)O)ccc21	active: 126 µM
COc1ccc(NS(=O)(=O)c2ccc(Cl)s2)cn1	inactive
O=c1[nH]c(-[n+]2ccccc2)c(/C=N/NC([S-])=Nc2ccccc2)s1	inconclusive: 40 µM [inhibitor, partial curve]
CCC(C)c1ccc(NC(=O)Nc2cccnc2)cc1 (stereo unspecified)	inconclusive: 4 µM [inhibitor, partial curve, poor fit]
O=C1C2C(c3ccccc3)CC=CC2[C@H](c2ccc(C(F)(F)F)cc2)N1Cc1ccccc1 (stereo partly specified)	inactive
NS(=O)(=O)c1ccc(NC2=CC(=O)C(=O)c3ccccc32)cc1	inconclusive: 142 µM [inhibitor, partial curve, poor fit]
CC(=O)Nc1ccc2cc3ccc(NC(C)=O)cc3nc2c1	inconclusive: 100 µM [inhibitor, partial curve]
N.N.O=C(O)C1(C(=O)O)CCC1.[Pt]	inconclusive: 159 µM [inhibitor, partial curve, poor fit]
Nc1c(C(=O)c2ccccc2)sc2snc(SCC(=O)c3ccccc3)c12	inactive
CC(=O)N/N=C/c1cc(C(C)(C)C)cc(/C=N/NC(C)=O)c1O	inactive
CCN(CC)CCN1C(=O)c2cccc3cc(N)cc(c23)C1=O	inconclusive: 44.8 µM [inhibitor, full curve]
CCc1ccc(S(=O)(=O)/N=C2\C=C(Nc3ccc(C(=O)O)cc3)C(=O)c3ccccc32)cc1	inconclusive: 11.3 µM [inhibitor, full curve]
CN(C)CCOc1nc(-c2ccccc2)nc2c1oc1ccccc12	inconclusive: 179 µM [inhibitor, partial curve]
CC(C)c1nnc(NC(=O)c2cc3cc(Br)ccc3oc2=O)s1	inactive

Random excerpt: two entries already listed.
Structure (SMILES)	Potency
CCn1c(CSc2ncn[nH]2)nc2cc(C(=O)O)ccc21	active: 126 µM
Cc1ccc(C2OC34CCCCCC3C(C#N)(C(=N)O4)C2(C#N)C#N)cc1 (stereo unspecified)	inconclusive: 142 µM [inhibitor, partial curve]
